PubChem BioAssay AID1224830 – NIAID – 2016
The whole screen tested about 18,000 reagents; below is a random part of them. About 2,900 of them (16%) were called active. 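Calls are made per well; low scores hint the gene aids the LPS response, high scores that it dampens it.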 Repeated entries: four replicate wells of each siRNA pool.

- Screen: 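Genes whose knock-down alters the TNF-alpha reporter response to LPS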 (primary screen)
- Cell system: human THP-1 monocytic leukaemia cells, TNF dual-luciferase reporter clone, PMA-differentiated to macrophage-like cells
- Reagent: siRNA pool against human genes, 50 nM
- Time to read-out: LPS for 4 h, given about 3 days after siRNA transfection
- Conditions: bacterial LPS (TLR4 ligand), 10 ng/ml
- Measurement: 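Ratio of firefly to renilla light, scaled to the plate median and expressed as a robust z-score per replicate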
- Direction: TNF reporter robust z-score: higher = stronger TNF reporter response to LPS
- Call rule: 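a well is active when its z-score exceeds 2.8 or falls below -1.5; control wells carry no call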

{"target": "PLEKHA1 (pleckstrin homology domain containing A1)", "TNF reporter robust z-score": -0.91, "activity call": "inactive"}
{"target": "PLEKHA1 (pleckstrin homology domain containing A1)", "TNF reporter robust z-score": -0.35, "activity call": "inactive"}
{"target": "PLEKHA1 (pleckstrin homology domain containing A1)", "TNF reporter robust z-score": -0.7, "activity call": "inactive"}
{"target": "PLEKHA1 (pleckstrin homology domain containing A1)", "TNF reporter robust z-score": -1.15, "activity call": "inactive"}
{"target": "HNF1B (HNF1 homeobox B)", "TNF reporter robust z-score": -0.62, "activity call": "inactive"}
{"target": "HNF1B (HNF1 homeobox B)", "TNF reporter robust z-score": 0.56, "activity call": "inactive"}
{"target": "HNF1B (HNF1 homeobox B)", "TNF reporter robust z-score": -0.31, "activity call": "inactive"}
{"target": "HNF1B (HNF1 homeobox B)", "TNF reporter robust z-score": 0.37, "activity call": "inactive"}
{"target": "PRKCSH (PRKCSH beta subunit of glucosidase II)", "TNF reporter robust z-score": 1.11, "activity call": "inactive"}
{"target": "PRKCSH (PRKCSH beta subunit of glucosidase II)", "TNF reporter robust z-score": 0.93, "activity call": "inactive"}
{"target": "PRKCSH (PRKCSH beta subunit of glucosidase II)", "TNF reporter robust z-score": 3.15, "activity call": "active"}
{"target": "NEURL4 (neuralized E3 ubiquitin protein ligase 4)", "TNF reporter robust z-score": -0.92, "activity call": "inactive"}
{"target": "NEURL4 (neuralized E3 ubiquitin protein ligase 4)", "TNF reporter robust z-score": -1.01, "activity call": "inactive"}
{"target": "NEURL4 (neuralized E3 ubiquitin protein ligase 4)", "TNF reporter robust z-score": 0.01, "activity call": "inactive"}
{"target": "NEURL4 (neuralized E3 ubiquitin protein ligase 4)", "TNF reporter robust z-score": -1.13, "activity call": "inactive"}
{"target": "EIF4ENIF1", "TNF reporter robust z-score": -1.29, "activity call": "inactive"}
{"target": "EIF4ENIF1", "TNF reporter robust z-score": -0.31, "activity call": "inactive"}
{"target": "EIF4ENIF1", "TNF reporter robust z-score": -0.81, "activity call": "inactive"}
{"target": "EIF4ENIF1", "TNF reporter robust z-score": -0.69, "activity call": "inactive"}
{"target": "SIX1 (SIX homeobox 1)", "TNF reporter robust z-score": 0.63, "activity call": "inactive"}
{"target": "SIX1 (SIX homeobox 1)", "TNF reporter robust z-score": 0.57, "activity call": "inactive"}
{"target": "SIX1 (SIX homeobox 1)", "TNF reporter robust z-score": -0.01, "activity call": "inactive"}
{"target": "SIX1 (SIX homeobox 1)", "TNF reporter robust z-score": -0.4, "activity call": "inactive"}
{"target": "DNAAF19 (dynein axonemal assembly factor 19)", "TNF reporter robust z-score": -0.09, "activity call": "inactive"}
{"target": "DNAAF19 (dynein axonemal assembly factor 19)", "TNF reporter robust z-score": 0.16, "activity call": "inactive"}
{"target": "DNAAF19 (dynein axonemal assembly factor 19)", "TNF reporter robust z-score": -0.51, "activity call": "inactive"}
{"target": "DNAAF19 (dynein axonemal assembly factor 19)", "TNF reporter robust z-score": 0.33, "activity call": "inactive"}
{"target": "KLHL9 (kelch like family member 9)", "TNF reporter robust z-score": -0.4, "activity call": "inactive"}
{"target": "KLHL9 (kelch like family member 9)", "TNF reporter robust z-score": 0.5, "activity call": "inactive"}
{"target": "KLHL9 (kelch like family member 9)", "TNF reporter robust z-score": -0.37, "activity call": "inactive"}
{"target": "KLHL9 (kelch like family member 9)", "TNF reporter robust z-score": 0.3, "activity call": "inactive"}
{"target": "TMEM86A (transmembrane protein 86A)", "TNF reporter robust z-score": 1.5, "activity call": "inactive"}
{"target": "TMEM86A (transmembrane protein 86A)", "TNF reporter robust z-score": 1.56, "activity call": "inactive"}
{"target": "TMEM86A (transmembrane protein 86A)", "TNF reporter robust z-score": -0.32, "activity call": "inactive"}
{"target": "TMEM86A (transmembrane protein 86A)", "TNF reporter robust z-score": 0.7, "activity call": "inactive"}
{"target": "PKD2 (polycystin 2, transient receptor potential cation channel)", "TNF reporter robust z-score": -0.18, "activity call": "inactive"}
{"target": "PKD2 (polycystin 2, transient receptor potential cation channel)", "TNF reporter robust z-score": 0.39, "activity call": "inactive"}
{"target": "PKD2 (polycystin 2, transient receptor potential cation channel)", "TNF reporter robust z-score": -0.09, "activity call": "inactive"}
{"target": "PKD2 (polycystin 2, transient receptor potential cation channel)", "TNF reporter robust z-score": 0.44, "activity call": "inactive"}
{"target": "MYLK4 (myosin light chain kinase family member 4)", "TNF reporter robust z-score": -1.04, "activity call": "inactive"}
{"target": "MYLK4 (myosin light chain kinase family member 4)", "TNF reporter robust z-score": 0.24, "activity call": "inactive"}
{"target": "MYLK4 (myosin light chain kinase family member 4)", "TNF reporter robust z-score": 0.5, "activity call": "inactive"}
{"target": "MYLK4 (myosin light chain kinase family member 4)", "TNF reporter robust z-score": -0.14, "activity call": "inactive"}
{"target": "TMEM40 (transmembrane protein 40)", "TNF reporter robust z-score": 0.4, "activity call": "inactive"}
{"target": "TMEM40 (transmembrane protein 40)", "TNF reporter robust z-score": 1.14, "activity call": "inactive"}
{"target": "TMEM40 (transmembrane protein 40)", "TNF reporter robust z-score": -0.57, "activity call": "inactive"}
{"target": "TMEM40 (transmembrane protein 40)", "TNF reporter robust z-score": 0.54, "activity call": "inactive"}
{"target": "LCE5A (late cornified envelope 5A)", "TNF reporter robust z-score": -0.94, "activity call": "inactive"}
{"target": "LCE5A (late cornified envelope 5A)", "TNF reporter robust z-score": 0.54, "activity call": "inactive"}
{"target": "LCE5A (late cornified envelope 5A)", "TNF reporter robust z-score": -1.37, "activity call": "inactive"}
{"target": "LCE5A (late cornified envelope 5A)", "TNF reporter robust z-score": -1.05, "activity call": "inactive"}
{"target": "RBM48 (RNA binding motif protein 48)", "TNF reporter robust z-score": -0.15, "activity call": "inactive"}
{"target": "RBM48 (RNA binding motif protein 48)", "TNF reporter robust z-score": 0.93, "activity call": "inactive"}
{"target": "RBM48 (RNA binding motif protein 48)", "TNF reporter robust z-score": -0.17, "activity call": "inactive"}
{"target": "RBM48 (RNA binding motif protein 48)", "TNF reporter robust z-score": 1.9, "activity call": "inactive"}
{"target": "FCGR3A (Fc gamma receptor IIIa)", "TNF reporter robust z-score": 1.53, "activity call": "inactive"}
{"target": "FCGR3A (Fc gamma receptor IIIa)", "TNF reporter robust z-score": 2.71, "activity call": "inactive"}
{"target": "FCGR3A (Fc gamma receptor IIIa)", "TNF reporter robust z-score": 1.74, "activity call": "inactive"}
{"target": "FCGR3A (Fc gamma receptor IIIa)", "TNF reporter robust z-score": 4.34, "activity call": "active"}
{"target": "PTCRA (pre T cell antigen receptor alpha)", "TNF reporter robust z-score": -0.5, "activity call": "inactive"}
{"target": "PTCRA (pre T cell antigen receptor alpha)", "TNF reporter robust z-score": 0.52, "activity call": "inactive"}
{"target": "PTCRA (pre T cell antigen receptor alpha)", "TNF reporter robust z-score": -0.29, "activity call": "inactive"}
{"target": "PTCRA (pre T cell antigen receptor alpha)", "TNF reporter robust z-score": -0.9, "activity call": "inactive"}

Records listed so far whose gene name begins with H or h (4):
{"target": "HNF1B (HNF1 homeobox B)", "TNF reporter robust z-score": -0.62, "activity call": "inactive"}
{"target": "HNF1B (HNF1 homeobox B)", "TNF reporter robust z-score": 0.56, "activity call": "inactive"}
{"target": "HNF1B (HNF1 homeobox B)", "TNF reporter robust z-score": -0.31, "activity call": "inactive"}
{"target": "HNF1B (HNF1 homeobox B)", "TNF reporter robust z-score": 0.37, "activity call": "inactive"}
